Some of the results follow.

The test concerns T1, CTL2-GFP (C. trachomatis L2/434/Bu, GFP-expressing).
T1 construct: L2/434/Bu, GFP-expressing
On the set-up: species or system HeLa; Intracellular C. trachomatis growth in HeLa cells, bulk GFP fluorescence relative to DMSO. The note with it: bulk GFP, single well; 28.5 h, 10 µM; inhibitor.
As for `Cc1cccc(C)c1NC(=O)C(C#N)C(=O)c1nn(-c2ccccc2)c2c1CSc1ccccc1-2` (stereo not drawn) [CBK017678], the “% of control remaining” value came to 100%.

In the case of `CC(CCc1ccccc1)NC(=O)CN1CCOCC1` (stereo not drawn) [CBK268994], the “% of control remaining” value was 140.964%. Regarding `O=C(COc1ccc(S(=O)(=O)Nc2ccc(Cl)cc2)cc1)Nc1ccccc1F` [CBK268427], the “% of control remaining” value is reported as 115.766%. With `CCCC(=O)N1CCC([C@@H]2C[C@H](C(F)F)n3nc(C)cc3N2)CC1` [CBK284724], the “% of control remaining” value is listed as 103.524%.

`CC(C)n1c(=O)n(CCN2CCCC2)c2cccnc21` [CBK283532]: the “% of control remaining” value was found to be 128.036%. On to `COc1cc(-c2nccnc2NCc2ccco2)cc(OC)c1OC` [CBK037072], for which the “% of control remaining” value amounted to 114.045%. With `O=S(=O)(Nc1nnc(C(F)(F)F)s1)c1ccc(Oc2ccccc2)cc1` [CBK062007], the “% of control remaining” value amounted to 116.443%. Regarding `O=C(O)c1[nH]c2ccccc2c1C(c1cc(Cl)cc([N+](=O)[O-])c1O)c1c(C(=O)O)[nH]c2ccccc12` [CBK267814], the “% of control remaining” value amounted to 93.3374%. `CC(=O)c1ccc(NS(=O)(=O)c2cc(C(=O)Nc3ccccc3C(=O)O)ccc2Br)cc1` [CBK263203]: the “% of control remaining” value was found to be 110.187%. The figure for `O=C(CSc1nnc(-c2ccc(Cl)cc2)n1-c1ccccc1)N/N=C/c1ccco1` [CBK262996] is 106.326%; for `O=C(O)c1cc(S(=O)(=O)Nc2ccc(O)cc2)c(Cl)cc1Cl` [CBK113231] it is 109.036%; for `Cc1ccccc1C(=O)Nc1cccc(NC(=O)c2ccc(-c3cc4ccccc4oc3=O)cc2)c1` [CBK267256] it is 108.903%. Take `Cc1cc2nc3s/c(=C\c4ccc(-c5ccc(O)c(C(=O)O)c5)o4)c(=O)n3c2cc1C` [CBK262538]: the “% of control remaining” value is given as 117.265%.

As for `Cc1c(C(=O)C2=C(O)C(=O)N(CCN3CCOCC3)C2c2ccccn2)cnn1-c1ccccc1` (stereo not drawn) [CBK266493], the “% of control remaining” value was found to be 94.9625%. As to `CCN1CCC[C@@H]1CNC(=O)c1ccncc1` [CBK174659], the “% of control remaining” value came to 110.901%. On to `Cn1c(=O)c2c(O)cc(=O)oc2c2ccccc21` [CBK003546], for which the “% of control remaining” value worked out at 118.981%. The figure for `O=S(=O)(NCc1cccc(F)c1)c1ccc(OC(F)(F)F)cc1` [CBK043379] is 151.982%; for `CCCCCOc1ccc(Nc2ccc(-c3cccnc3)cn2)cc1` [CBK036948] it is 135.103%; for `CN(C)c1ccc(Nc2nc(NCCO)c3ccccc3n2)cc1` [CBK268392C] it is 10.622%. As for `O=S(=O)(c1cccs1)N1CCCN(Cc2nccs2)CC1` [CBK045172], the “% of control remaining” value was determined as 85.9434%. On to `CS(=O)(=O)c1cccc(-c2nnc(NC(=O)c3ccccc3)o2)c1` [CBK287726], for which the “% of control remaining” value is 141.256%. With `Cc1cccc(CCNC(=O)c2cccn(CC(=O)N(C)C3CCCCC3)c2=O)c1` [CBK286113], the “% of control remaining” value amounted to 96.9089%. For the compound `CCn1nc(C(C)C)cc1C(=O)N1CC2(CCNCC2)CC1C(=O)O` (stereo not drawn) [CBK307179], the “% of control remaining” value came to 148.452%. For the compound `Cc1ccc(OCCSc2nnc3[nH]c4ccccc4n23)cc1` [CBK267922], the “% of control remaining” value is 117.176%.

On to `Cc1ccc(C(C)CCN2CC3CCCN3C[C@H]2C)o1` (stereo partly drawn) [CBK285467], for which the “% of control remaining” value turned out to be 125.994%. With `CCCOc1ccc(-c2cc(C(=O)NO)n[nH]2)cc1C` [CBK288362], the “% of control remaining” value is 120.919%. `Nc1ncc(-c2ccc(-c3ccccc3F)cc2)c2cccnc12` [CBK067597]: the “% of control remaining” value is 135.916%.

For the compound `C=CCOC(=O)N1CCC(C(=O)NC(c2ccccn2)c2ccccc2C)CC1` (stereo not drawn) [CBK059689], the “% of control remaining” value stood at 99.3867%. On to `COc1ccccc1-c1cccc(CC2(C(=O)NCCc3ccccc3)CCOCC2)c1` [CBK285593], for which the “% of control remaining” value came out at 115.306%. The figure for `COc1ccc(/C=C2\S/C(=N/N=C/c3ccc(OC)cc3)N(c3ccc(O)cc3)C2=O)cc1` [CBK262780] is 131.264%.

For the compound `CCCCc1ccc(C(N)=O)nc1C(N)=O` [CBK005061], the “% of control remaining” value is on record as 124.519%.

On to `O=C(NCCc1ccc(S(=O)(=O)NC(=O)NC2CCCCC2)cc1)NC1CCCCC1` [CBK011926], for which the “% of control remaining” value turned out to be 143.124%.

With `CC(C)Nc1nccnc1Sc1ccc(N)cc1` [CBK089485], the “% of control remaining” value is reported as 129.393%.

Consider `COc1cccc(CC(=O)N2C3CCC2CC(O)(c2ccco2)C3)c1` (stereo not drawn) [CBK284053], for which the “% of control remaining” value was found to be 136.987%. `CN1CCCN(c2ccc(NS(=O)(=O)c3cccc(F)c3)c3ccccc23)CC1` [CBK200010C]: the “% of control remaining” value is recorded as 19.7179%. For `Cc1nn(-c2cccc(C(=O)NC3CCCOC3)c2)c(C)c1Cl` (stereo not drawn) [CBK282512], the “% of control remaining” value is 114.277%. For `Cc1nc(C)c(C(=O)NCCN2CCCCC2C)s1` (stereo not drawn) [CBK282200], the “% of control remaining” value is listed as 121.991%. `Cc1ccccc1N1CCN(C(=O)c2nn[nH]c2Nc2ccccc2F)CC1` [CBK288032]: the “% of control remaining” value is recorded as 113.963%. As for `CS(=O)(=O)c1ccc2nc(NC(=O)c3ccco3)sc2c1` [CBK287341], the “% of control remaining” value is listed as 139.555%. Regarding `CCCOC1CCCN(Cc2cn(CC(N)=O)c3ccccc23)C1` (stereo not drawn) [CBK282796], the “% of control remaining” value is recorded as 125.57%.

In the case of `OCCN1CCN(c2nc(-c3cc(Cl)cc(Cl)c3)cn3ccnc23)CC1` [CBK066558], the “% of control remaining” value is on record as 122.303%. Consider `Cc1nn2cc(-c3n[nH]cc3[N+](=O)[O-])cnc2c1C(N)=O` [CBK268957], for which the “% of control remaining” value came to 139.963%. In the case of `Cc1cccc(-c2ocnc2C(=O)NC(C)c2ccccn2)c1` (stereo not drawn) [CBK282427], the “% of control remaining” value was determined as 101.298%.

As for `Cc1noc(C)c1COc1ccc(C(=O)N[C@@H]2CN(C(=O)NC(C)C)CCC[C@H]2O)cc1` [CBK289069], the “% of control remaining” value turned out to be 110.637%.

Turning to `CCc1noc(C)c1C(=O)Nc1cccc(Cn2cc(Cl)cn2)c1` [CBK268127], the “% of control remaining” value was 133.721%. `Cc1cc(Cl)ccc1OC(C)C(=O)NCc1ccccn1` (stereo not drawn) [CBK265441]: the “% of control remaining” value was found to be 100%. Regarding `Cc1ccc(CS(=O)(=O)N(CC(C)C)C2CC2)c(F)c1` [CBK306460], the “% of control remaining” value is 92.0653%. As for `O=C(NCc1ccc([N+](=O)[O-])cc1)c1cccnc1NCc1ccc2c(c1)OCO2` [CBK153436], the “% of control remaining” value came to 15.7061%. The same measure for `Nc1ncc(-c2ccc(O)cc2)nc1N1CCN(CCO)CC1` [CBK063685]: 93.1401%; for `O=C(Nc1cccc(C(F)(F)F)c1)c1ccc(N2CCNCC2)c([N+](=O)[O-])c1` [CBK266274]: 89.7222%; for `O=C(Nc1ccc2c(c1)OCO2)N1CCN(c2ccc(F)cc2)CC1` [CBK270332]: 113.364%.

On to `O=C(NC1CCCC1)c1ncoc1-c1ccccc1` [CBK281937], for which the “% of control remaining” value amounted to 131.563%. Take `CCn1c(=O)n(CC(=O)N2CCCC3CCCCC32)c2cccnc21` (stereo not drawn) [CBK283893]: the “% of control remaining” value is on record as 121.409%. For the compound `CN(C)S(=O)(=O)c1cc(C(=O)Nc2ccc(C(=O)O)cc2)c(Cl)cc1Cl` [CBK266783], the “% of control remaining” value was 107.831%. The same measure for `Cn1ccnc1C1(O)CC2CCC(C1)N2C(=O)NC1CCCCC1` (stereo not drawn) [CBK284049]: 148.098%.

For the compound `O=C(CSC1c2ccccc2Sc2ccccc21)Nc1ccc(C(=O)O)cc1` [CBK267542], the “% of control remaining” value is 89.8205%.

As to `OC(Cn1c(Cc2ccccc2)nc2ccccc21)Cn1c2ccc(Cl)cc2c2cc(Cl)ccc21` (stereo not drawn) [CBK262546], the “% of control remaining” value is on record as 100%. `CCOC(=O)c1ccsc1NC(=O)C1CC=CCC1C(=O)O` (stereo not drawn) [CBK270291]: the “% of control remaining” value was determined as 147.599%. With `COc1cc(-c2nccnc2N(C)Cc2ccccc2)cc(OC)c1OC` [CBK037424], the “% of control remaining” value is on record as 178.293%.

Consider `Cn1cc(-c2nccnc2OC(c2ccccc2)c2ccccc2)cn1` [CBK107073], for which the “% of control remaining” value is listed as 145.748%. Turning to `Oc1cc(C(F)(F)F)nc(SCc2ccc(Cl)cc2)n1` [CBK002305], the “% of control remaining” value was 101.396%. On to `CN1CCN(C(=O)c2ccccc2N(Cc2ccccc2)S(C)(=O)=O)CC1` [CBK266267], for which the “% of control remaining” value is 138.517%. `COC(=O)c1cn(C(=O)CCCN2C(=O)c3ccccc3C2=O)c2ccccc12` [CBK266799]: the “% of control remaining” value worked out at 163.109%. Consider `O=S(=O)(Nc1ccc2[nH]ccc2c1)c1ccc(Br)cc1F` [CBK153510], for which the “% of control remaining” value came to 93.5676%.

Take `O=C(O)CCC(=O)NN1C(=O)c2ccccc2NC1c1ccc(F)cc1` (stereo not drawn) [CBK286905]: the “% of control remaining” value came to 125.702%. With `O=[N+]([O-])c1ccc(Sc2nnc(COc3ccccc3)n2-c2ccccc2)nc1` [CBK265041], the “% of control remaining” value came to 68.4251%. The figure for `O=C(O)C1CCCN1C(=O)Nc1ccccc1Cl` (stereo not drawn) [CBK161381] is 122.817%. As for `Cc1ccc(-c2nnc(CNC(=O)Cc3ccc(F)cc3)o2)s1` [CBK284645], the “% of control remaining” value was determined as 143.055%. The figure for `COc1ccc(Br)cc1/C=N/Nc1nc(NCc2ccccc2)nc(N2CCOCC2)n1` [CBK261232] is 117.431%; for `COC(=O)c1c(NC(=O)C(Sc2ccccc2)c2ccccc2)sc2c1CCC(C(C)(C)C)C2` (stereo not drawn) [CBK262603] it is 109.244%; for `O=C(O)CCCCCNC(=S)Nc1cccc(Cl)c1` [CBK288446] it is 116.403%. Turning to `Cc1nn(C)c(Cl)c1S(=O)(=O)Nc1nn(Cc2ccc(C#N)cc2)c2ccccc12` [CBK048185], the “% of control remaining” value is reported as 96.8325%. The same measure for `c1ccc(-c2n[nH]c(-c3ccncc3)c2-c2nc3ccccc3[nH]2)cc1` [CBK262180]: 117.742%; for `CCN(CC)CCO/N=C1\CC2(CCCCC2)c2ccccc21` [CBK013325]: 138.383%. In the case of `CCN1CCN(C(=O)c2ccccc2N(Cc2ccccc2)S(=O)(=O)c2ccc(C)cc2)CC1` [CBK266827], the “% of control remaining” value stood at 124.783%. On to `CC(C)NC(=O)CN(C)Cc1nc(-c2cccc(C(F)(F)F)c2)no1` [CBK306036], for which the “% of control remaining” value is 149.317%.

Consider `CCN(CC)c1ccc(SC)n1C` [CBK020929], for which the “% of control remaining” value was 120.189%. For `CCn1cc(C2CN(S(=O)(=O)c3cccc(COC)c3)CCO2)cn1` (stereo not drawn) [CBK304222], the “% of control remaining” value worked out at 88.1984%.

(Values after article PMC12040169 (PLOS Biology, 2025).)
